Laboratory results as given in patent publication US20220041717A1 (AFFIMED, published 2022).
Results are given in words; binding and its absence hold for the method and conditions named. Some results given as binding are weak or reduced against the parent protein; the word gives no strength.

Protein sequences, listed by entry. Tags and fused reporters are not part of them. Lines headed by an entry give the natural chain unless they say otherwise; changes in a name come on top.
UniProt P08637: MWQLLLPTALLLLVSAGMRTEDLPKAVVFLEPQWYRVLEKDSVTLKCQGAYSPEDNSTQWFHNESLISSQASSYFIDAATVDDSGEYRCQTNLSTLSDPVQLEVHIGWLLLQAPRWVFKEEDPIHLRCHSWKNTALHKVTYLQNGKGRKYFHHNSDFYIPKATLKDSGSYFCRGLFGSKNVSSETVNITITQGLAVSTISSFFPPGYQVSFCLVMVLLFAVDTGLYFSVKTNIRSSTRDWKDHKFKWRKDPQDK
UniProt Q02223: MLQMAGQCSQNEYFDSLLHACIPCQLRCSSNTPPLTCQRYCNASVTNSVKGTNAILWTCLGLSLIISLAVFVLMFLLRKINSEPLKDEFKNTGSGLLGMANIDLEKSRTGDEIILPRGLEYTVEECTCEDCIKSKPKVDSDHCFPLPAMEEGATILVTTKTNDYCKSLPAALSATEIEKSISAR

How the values were obtained:
[1] = biological target: CD16A (FcgammaRIIIA) on primary human NK-cells (human) (UniProt P08637); test: flow cytometry titration on primary human NK-cells, 37 C, buffer without IgG; detection with BCMA(1-54)-GCN4-His, anti-His mAb, FITC goat anti-mouse IgG
[2] = biological target: CD16A (FcgammaRIIIA) on primary human NK-cells (human) (UniProt P08637); test: flow cytometry on primary human NK-cells (FIG. 4)
[3] = biological target: CD16A (FcgammaRIIIA) on primary human NK-cells (human) (UniProt P08637); test: flow cytometry titration on primary human NK-cells, 37 C; detection with BCMA(1-54)-GCN4-His, anti-His mAb, FITC goat anti-mouse IgG
[4] = biological target: B-cell maturation antigen (BCMA) on myeloma cell lines (human) (UniProt Q02223); test: flow cytometry titration on NCI-H929 cells; detection with CD16A-mFc.67/anti-human-FITC
[5] = biological target: CD16A (FcgammaRIIIA) on primary human NK-cells (human) (UniProt P08637); test: flow cytometry titration on primary human NK-cells, 37 C, in presence of 10 mg/mL polyclonal human IgG; detection with BCMA(1-54)-GCN4-His, anti-His mAb, FITC goat anti-mouse IgG
[6] = biological target: CD16A (FcgammaRIIIA) on primary human NK-cells (human) (UniProt P08637); test: dissociation time course by flow cytometry: primary human NK-cells loaded with 50 ug/mL tandem diabody variant 4 on ice, then 37 C in buffer without IgG
[7] = biological target: CD16A (FcgammaRIIIA) on primary human NK-cells (human) (UniProt P08637); test: flow cytometry on primary human NK-cells (referred to in Example 4)
[8] = biological target: CD16A (FcgammaRIIIA) on primary human NK-cells (human) (UniProt P08637); test: flow cytometry on primary human NK-cells, tandem diabody against scFv
[9] = biological target: B-cell maturation antigen (BCMA) on myeloma cell lines (human) (UniProt Q02223); test: flow cytometry titration on MM.1S cells; detection with CD16A-mFc.67/anti-human-FITC
[10] = biological target: CD16A (FcgammaRIIIA) on primary human NK-cells (human) (UniProt P08637); test: dissociation time course by flow cytometry: primary human NK-cells loaded with 50 ug/mL tandem diabody variant 4 on ice, then 37 C in buffer with 10 mg/mL polyclonal human IgG

Measured: binding

B1: BCMA/CD16A-directed tandem diabody in variant 4 (bispecific antibody)
chain: QVQLVQSGAEVKTPGEPLKISCKGSGYSFTDSWIGWVRQMPGKGLEWMGIIYAGDSDARYSPSFQGQVTISADTSTSTVYLQWSSLKASDTAMYYCARNFGDHWGQGTLVTVSSGGSGGSGGSGGSSYVLTQPSSVSVAPGQTATISCGGHNIGSKNVHWYQQRPGQSPVLVIYQDNKRPSGIPERFSGSNSGNTATLTISGTQAMDEADYYCQVWDNYSVLFGGGTKLTVLGGSQVQLVQSGAEVKKPGESLKVSCKASGYTFTSYYMHWVRQAPGQGLEWMGAIEPMYGSTSYAQKFQGRVTMTRDTSTSTVYMELSSLRSEDTAVYYCARGSAYYYDFADYWGQGTLVTVSSGGSGGSGGSGGSSYELTQSPSVSVAPGQTARIFCGGDNIGSKNVHWYQQKPGQAPVLVIYRDSNRPSGIPERFSGANSENTATLTISRAQAGDEADYYCQVWDSRTYVFGTGTKLTVL
notes: also called tandem diabody variant 4; Tandem diabody (v4)
binds: all assays above
